Measured values published in patent US20200165312A1, “COSMETIC COMPOSITION FOR IMPROVING SKIN CONDITIONS COMPRISING FUSION PROTEIN INCLUDING SKIN PENETRATION ENHANCING PEPTIDE” (LG HOUSEHOLD & HEALTH CARE LTD., priority 2017, published 2020).
At least one peptide structure holds a part that was inferred or is arguable (an end, a ring closure or a residue). Where a SMILES comes first, the peptide text is derived from it.

Tested on: C2C12 cells
Test: Inhibition of muscle contraction: contractions of C2C12 cells co-cultured with neuroblasts
Format: cell-based
Conditions: 50 ppm, 2 hours, medium without FBS, counted for 30 seconds; FIG. 1
Experimental: Then, the number of contractions of the C2C12 cells was measured for 30 second at the initial stage of cell contraction and all of the medium was removed, followed by washing three times with PBS. The cells were reacted for 2 hours in a medium supplemented with 50 ppm of the fusion peptide without the FBS. Then, the number of contractions of the C2C12 cells was measured for 30 seconds to identify the degree of inhibiting muscle contraction.

Compound: CC[C@H](C)[C@H](NC(=O)[C@@H]1CCCN1C(=O)[C@H](C)NC(=O)[C@H](CC(C)C)NC(=O)[C@H](Cc1c[nH]cn1)NC(=O)[C@@H](NC(=O)[C@H](CC(N)=O)NC(=O)[C@H](CC(C)C)NC(=O)[C@H](CO)NC(=O)CNC(=O)[C@H](CC(N)=O)NC(=O)[C@H](CCCNC(=N)N)NC(=O)[C@H](CCCNC(=N)N)NC(=O)[C@H](CCC(N)=O)NC(=O)[C@H](CCSC)NC(=O)[C@H](CCC(=O)O)NC(=O)[C@H](CCC(=O)O)NC(C)=O)[C@@H](C)O)C(=O)N[C@@H](CC(C)C)C(=O)O (Ac-EEMQRRNGSLNTHLAPIL-OH; N-terminus and C-terminus assumed)
- number of contractions of the C2C12 cells: reduced
